System: eczema lesional and non-lesional skin
Assay: Affymetrix oligonucleotide array gene expression in eczema, involved and uninvolved skin compared to normal skin
Design: species or system human; key: ++: normally expressed; +++: strongly expressed; ++++: highly expressed; +down-regulation
Conditions: protease genes

**Q.** With “SCTE: recombinant Stratum Corneum Tryptic Enzyme expressed in an active form” as the substance, how does the “Expression level Involved” value (eczema lesional skin (involved)) read?
**A.** ++++

**Q.** What about the “Expression level Uninvolved” value (eczema non-lesional skin (uninvolved)) of the same substance?
**A.** +++
